Data reported in PMC4762662.
These are yes or no findings as the source states them, for the method shown. For some assays here: Binding seen in cells or lysates may run through a third protein. Some binding calls cover weakened binding; strength is not graded here. For some assays here: Sequences can lack the tags named with a protein. Each block holds one binder with its values, some of them ahead of it.

Protein sequences, listed by entry. Tags and fused reporters are not part of them.
UniProt Q86WV6: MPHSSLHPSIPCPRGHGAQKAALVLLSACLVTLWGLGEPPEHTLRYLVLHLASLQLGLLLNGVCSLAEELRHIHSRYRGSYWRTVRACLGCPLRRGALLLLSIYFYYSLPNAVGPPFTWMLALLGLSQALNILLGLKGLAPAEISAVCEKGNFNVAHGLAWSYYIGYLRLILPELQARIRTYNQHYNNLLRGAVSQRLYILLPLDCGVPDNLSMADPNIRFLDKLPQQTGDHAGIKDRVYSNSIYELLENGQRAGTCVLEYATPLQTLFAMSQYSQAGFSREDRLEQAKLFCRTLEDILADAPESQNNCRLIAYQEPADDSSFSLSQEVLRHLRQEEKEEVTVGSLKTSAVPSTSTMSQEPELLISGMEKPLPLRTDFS

Experiments:
[1] = biological target: Stimulator of interferon genes (STING), HA-tagged (human (by the printed RefSeq entry)), Q86WV6; test: co-IP; conditions: remark: other sources report otherwise
[2] = biological target: Stimulator of interferon genes (STING), HA-tagged (human (by the printed RefSeq entry)) (UniProt Q86WV6); test: co-IP
[3] = biological target: T1, IRF3, endogenous in MEF cells (mouse (endogenous in MEF)) (UniProt P70671); test: co-IP; endogenous proteins in MEF lysates; IP with anti-STING or anti-IRF3 antibody or normal IgG; cells untreated or stimulated with HSV-1, Listeria monocytogenes or ISD; with N.C., Insig1 or Scap siRNA; with or without stable Flag-SCAP; WT or sting-/- MEF
T1 sequence: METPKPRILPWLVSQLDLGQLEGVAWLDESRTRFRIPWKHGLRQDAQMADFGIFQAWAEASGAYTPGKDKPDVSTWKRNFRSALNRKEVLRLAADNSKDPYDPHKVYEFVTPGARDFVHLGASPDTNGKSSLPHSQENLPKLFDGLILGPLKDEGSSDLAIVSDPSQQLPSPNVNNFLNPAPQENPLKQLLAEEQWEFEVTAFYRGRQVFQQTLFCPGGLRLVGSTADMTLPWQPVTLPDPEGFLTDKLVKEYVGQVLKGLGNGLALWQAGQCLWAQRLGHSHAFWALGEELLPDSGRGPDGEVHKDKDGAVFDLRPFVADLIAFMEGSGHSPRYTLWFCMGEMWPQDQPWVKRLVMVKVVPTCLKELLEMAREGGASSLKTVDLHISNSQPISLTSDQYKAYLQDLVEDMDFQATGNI

[4] = biological target: T2, STING, endogenous in MEF cells (mouse (endogenous in MEF)) (UniProt Q3TBT3); test: as above
T2 sequence: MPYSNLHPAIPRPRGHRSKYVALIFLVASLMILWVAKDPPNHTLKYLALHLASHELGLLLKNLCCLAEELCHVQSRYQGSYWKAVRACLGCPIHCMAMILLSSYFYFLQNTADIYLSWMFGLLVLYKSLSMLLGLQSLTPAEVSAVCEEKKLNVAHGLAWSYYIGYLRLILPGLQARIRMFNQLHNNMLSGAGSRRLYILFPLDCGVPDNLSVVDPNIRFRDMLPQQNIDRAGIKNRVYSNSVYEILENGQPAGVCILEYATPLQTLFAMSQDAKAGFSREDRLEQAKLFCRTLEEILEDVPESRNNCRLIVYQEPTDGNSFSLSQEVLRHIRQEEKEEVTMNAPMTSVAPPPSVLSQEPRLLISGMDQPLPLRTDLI

[5] = biological target: T3, IRF3, endogenous in MEF cells (mouse (endogenous in MEF)), P70671; test: native gel or EMSA; native PAGE of extracts of MEF cells stimulated with ISD, after N.C., Scap or Tom20 siRNA; IRF3 dimerization; conditions: remark: other sources report otherwise
T3 chain: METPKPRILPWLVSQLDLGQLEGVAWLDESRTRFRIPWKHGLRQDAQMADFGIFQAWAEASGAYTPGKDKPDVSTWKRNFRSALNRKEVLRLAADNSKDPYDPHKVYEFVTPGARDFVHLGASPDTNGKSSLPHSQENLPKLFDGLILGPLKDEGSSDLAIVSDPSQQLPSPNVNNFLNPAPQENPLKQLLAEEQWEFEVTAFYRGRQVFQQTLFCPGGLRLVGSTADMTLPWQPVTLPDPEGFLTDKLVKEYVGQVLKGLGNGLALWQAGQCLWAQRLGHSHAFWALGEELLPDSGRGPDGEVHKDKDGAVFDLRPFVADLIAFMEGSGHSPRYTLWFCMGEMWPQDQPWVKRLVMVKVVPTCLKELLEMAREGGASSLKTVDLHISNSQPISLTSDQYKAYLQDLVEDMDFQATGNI

B3: SCAP, endogenous in MEF cells (protein, UniProt Q6GQT6 1-1276)
chain: MTLTERLREKISQAFYNHGLLCASYPIPIILFTGLCILACCYPLLKLPLPGTGPVEFSTPVKGYSPPPADSDHKQGEPSEQPEWYVGAPVAYIQQIFVKSSVSPWHRNLLAVDVFRSPLSRAFQLVEEIRNHVLRDSSGTKSLEEVCLQVTDLLPGLRKLRSLLPEHGCLLLSPGNFWQNDWERFHADPDIIGTIHQHEPKTLQTSATLKDLLFGVPGKYSGVSLYTRKRMVSYTITLVFQRYHAKFLSSLRARLMLLHPSPNCSLRAENLVHVHFKEEIGIAELIPLVTTYIILFAYIYFSTRKIDMVKSKWGLALAAVVTVLSSLLMSVGLCTLFGLTPTLNGGEIFPYLVVVIGLENVLVLTKSVVSTPVDLEVKLRIAQGLSSESWSIMKNAATELGIILIGYFTLVPAIQEFCLFAVVGLVSDFFLQMLFFTTVLSIDIRRMELADLNKRLPPESCLPSAKPVGRPARYERQQAVRPSTPHTITLQPSSFRNLRLPKRLRVIYFLARTRLAQRLIMAGTVVWIGILVYTDPAGLRTYLAAQVTEQSPLGEGSLGPMPVPSGVLPASHPDPAFSIFPPDAPKLPENQTLPGELPEHAGPAEGVHDSRAPEVTWGPEDEELWRKLSFRHWPTLFNYYNITLAKRYISLLPVIPVTLHLNPREALEGRHPQDGRSAWAPQEPLPAGLWESGPKGPGGTQTHGDITLYKVAALGLAAGIVLVLLLLCLYRVLCPRNYGQPGGGPGRRRRGELPCDDYGYAPPETEIVPLVLRGHLMDIECLASDGMLLVSCCLAGQVCVWDAQTGDCLTRIPRPGPRRDSCGGGAFETQENWERLSDGGKASPEEPGDSPPLRRRPRGPPPPSLFGDQPDLTCLIDTNFSVQLPPEPTQPEPRHRVGCGRSRDSGYDFSRLVQRVYQEEGLAAMRMPALRPPSPGPPLPQASQEEGTAPEKGSPPLAWTPSTAGSIWSLELQGNLIVVGRSSGRLEVWDAIEGVLCCSNEEISSGITALVFLDRRIVAARLNGSLDFFSLETHTSLSPLQFRGTPGRGSSPSSSVYSSSNTVTCHRTHTVPCAHQKPITALRAAAGRLVTGSQDHTLRVFRLDDSCCLFTLKGHSGAITAVYIDQTMVLASGGQDGAICLWDVLTGSRVSQTFAHRGDVTSLTCTASCVISSGLDDFISIWDRSTGIKLYSIQQDLGCGASLGVISDNLLVTGGQGCVSFWDLNYGDLLQTVYLGKNSEAQPARQILVLDNAAIVCNFGSELSLVYVPSVLEKLD
- binding [3]: binds
- binding [4]: binds

B4: IRF3, endogenous in MEF cells, P70671 1-419 (protein)
chain: METPKPRILPWLVSQLDLGQLEGVAWLDESRTRFRIPWKHGLRQDAQMADFGIFQAWAEASGAYTPGKDKPDVSTWKRNFRSALNRKEVLRLAADNSKDPYDPHKVYEFVTPGARDFVHLGASPDTNGKSSLPHSQENLPKLFDGLILGPLKDEGSSDLAIVSDPSQQLPSPNVNNFLNPAPQENPLKQLLAEEQWEFEVTAFYRGRQVFQQTLFCPGGLRLVGSTADMTLPWQPVTLPDPEGFLTDKLVKEYVGQVLKGLGNGLALWQAGQCLWAQRLGHSHAFWALGEELLPDSGRGPDGEVHKDKDGAVFDLRPFVADLIAFMEGSGHSPRYTLWFCMGEMWPQDQPWVKRLVMVKVVPTCLKELLEMAREGGASSLKTVDLHISNSQPISLTSDQYKAYLQDLVEDMDFQATGNI
- binding [5]: binds

Results, then the binder that gave them:

- binding [1]: binds
B1: TBK1, Flag-tagged, Q9UHD2 1-729 (enzyme)
chain: MQSTSNHLWLLSDILGQGATANVFRGRHKKTGDLFAIKVFNNISFLRPVDVQMREFEVLKKLNHKNIVKLFAIEEETTTRHKVLIMEFCPCGSLYTVLEEPSNAYGLPESEFLIVLRDVVGGMNHLRENGIVHRDIKPGNIMRVIGEDGQSVYKLTDFGAARELEDDEQFVSLYGTEEYLHPDMYERAVLRKDHQKKYGATVDLWSIGVTFYHAATGSLPFRPFEGPRRNKEVMYKIITGKPSGAISGVQKAENGPIDWSGDMPVSCSLSRGLQVLLTPVLANILEADQEKCWGFDQFFAETSDILHRMVIHVFSLQQMTAHKIYIHSYNTATIFHELVYKQTKIISSNQELIYEGRRLVLEPGRLAQHFPKTTEENPIFVVSREPLNTIGLIYEKISLPKVHPRYDLDGDASMAKAITGVVCYACRIASTLLLYQELMRKGIRWLIELIKDDYNETVHKKTEVVITLDFCIRNIEKTVKVYEKLMKINLEAAELGEISDIHTKLLRLSSSQGTIETSLQDIDSRLSPGGSLADAWAHQEGTHPKDRNVEKLQVLLNCMTEIYYQFKKDKAERRLAYNEEQIHKFDKQKLYYHATKAMTHFTDECVKKYEAFLNKSEEWIRKMLHLRKQLLSLTNQCFDIEEEVSKYQEYTNELQETLPQKMFTASSGIKHTMTPIYPSSNTLVEMTLGMKKLKEEMEGVVKELAENNHILERFGSLTMDGGLRNVDCL

- binding [2]: binds
B2: insulin induced gene 1 (INSIG1), epitope-tagged (protein, UniProt O15503-1 1-277)
chain: MPRLHDHFWSCSCAHSARRRGPPRASAAGLAAKVGEMINVSVSGPSLLAAHGAPDADPAPRGRSAAMSGPEPGSPYPNTWHHRLLQRSLVLFSVGVVLALVLNLLQIQRNVTLFPEEVIATIFSSAWWVPPCCGTAAAVVGLLYPCIDSHLGEPHKFKREWASVMRCIAVFVGINHASAKLDFANNVQLSLTLAALSLGLWWTFDRSRSGLGLGITIAFLATLITQFLVYNGVYQYTSPDFLYIRSWLPCIFFSGGVTVGNIGRQLAMGVPEKPHSD
